Test results from article PMC7862700.
The entries are a selection whose mix differs from that of the whole data set. At the low end of the ranking the order means little.

Protein sequences, listed by entry. Tags and fused reporters are not part of them. Lines headed by an entry give the natural chain unless they say otherwise; changes in a name come on top.
UniProt O43186: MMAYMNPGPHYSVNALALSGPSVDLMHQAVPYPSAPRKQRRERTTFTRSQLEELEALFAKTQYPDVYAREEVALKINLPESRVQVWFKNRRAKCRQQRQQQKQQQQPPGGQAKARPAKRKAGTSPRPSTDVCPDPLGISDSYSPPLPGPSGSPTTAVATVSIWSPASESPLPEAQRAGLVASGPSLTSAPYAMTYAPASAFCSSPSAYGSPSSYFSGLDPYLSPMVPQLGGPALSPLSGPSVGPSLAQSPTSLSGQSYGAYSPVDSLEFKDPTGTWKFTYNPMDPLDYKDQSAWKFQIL

What was measured:
Test in all cases: DAPPL (digital affinity profiling via proximity ligation, sequencing)
Conditions in all cases: 10 mM Tris-HCl pH 7.5, 50 mM NaCl, 1 mM DTT, 4% glycerol, room temperature, 30 min; GST-TFs on glutathione beads, 16-mer random dsDNA library, 0.1% …; high values mean tight binding; double strand, one strand shown; scale: fold enrichment (6-mer frequency, TF over GST control)
[1] = biological target: T1, FEV (UniProt Q99581)
T1 sequence: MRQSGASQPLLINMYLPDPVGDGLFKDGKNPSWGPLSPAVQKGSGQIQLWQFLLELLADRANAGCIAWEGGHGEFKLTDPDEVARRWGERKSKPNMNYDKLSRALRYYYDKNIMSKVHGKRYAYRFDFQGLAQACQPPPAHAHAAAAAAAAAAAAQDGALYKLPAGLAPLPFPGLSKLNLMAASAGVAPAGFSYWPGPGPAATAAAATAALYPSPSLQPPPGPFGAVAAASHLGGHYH

[2] = biological target: CRX (UniProt O43186)
[3] = biological target: T2, ELF5 (UniProt Q9UKW6-2)
T2 sequence: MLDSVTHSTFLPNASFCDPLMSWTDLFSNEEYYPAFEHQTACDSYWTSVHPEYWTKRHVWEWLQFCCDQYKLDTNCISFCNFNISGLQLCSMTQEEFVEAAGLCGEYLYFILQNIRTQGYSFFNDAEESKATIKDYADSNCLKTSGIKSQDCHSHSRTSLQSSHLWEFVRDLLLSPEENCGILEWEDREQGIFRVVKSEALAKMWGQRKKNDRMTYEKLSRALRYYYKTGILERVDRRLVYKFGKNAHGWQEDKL

Sequence	binding signal [1]	binding signal [2]	binding signal [3]
GTGCGC	0.96	0.698	0.919
ACGAAG	0.934	0.831	0.925
TGCGGT	0.992	0.786	0.954
TCTGAG	0.944	1.04	0.858
CCCGGT	1.04	0.686	1.05
TGAAGC	0.935	0.978	0.94
CACCCA	0.986	0.804	0.993
CAGTTC	0.957	0.682	1
GAAGGT	0.776	0.788	0.894
AGTTAT	0.841	0.89	0.919
GCGTCA	0.899	0.646	0.947
AGGCAC	0.884	0.685	0.82
TCATCG	0.997	1.05	0.904
GAATGA	0.929	0.921	0.944
TTGGCG	0.974	0.812	0.917
GCGTTG	0.96	0.643	0.843
CACCTA	0.963	0.966	0.92
TGGCAT	1.3	1.21	1.06
AAGGGT	0.958	0.987	1.04
GACCAA	0.96	0.751	0.904

An excerpt of these results, as a markdown table.

| Sequence | binding signal [1] | binding signal [2] | binding signal [3] |
| --- | --- | --- | --- |
| ACGAAG | 0.934 | 0.831 | 0.925 |
| TGCGGT | 0.992 | 0.786 | 0.954 |
| TCTGAG | 0.944 | 1.04 | 0.858 |

Additional results:

Sequence	binding signal [1]	binding signal [2]	binding signal [3]
CAATAG	0.995	0.939	0.943
AACGGA	1.35	0.788	1.11
GCCCTG	0.915	0.807	0.887
AGGCCC	0.948	0.812	0.876
CATGCG	0.968	0.916	0.985
TGAAGG	0.86	0.86	0.943
GTCCAA	0.907	0.715	0.929
GTCTGG	0.833	0.785	0.792
GCGGCA	0.874	0.646	0.829
CCAAGT	0.897	0.783	0.861
ACCAAG	0.912	0.8	0.879
AGTTAC	0.93	0.735	0.99
CATCAG	0.864	0.77	0.862
TGAAAT	0.945	1.03	0.933
GACCGA	0.858	0.793	0.773
CGCTGT	0.884	0.744	0.898
GTGGTA	0.909	0.785	0.89
TACATA	1.21	1.27	1.16
CCACAC	1.11	0.816	0.992
GCGATC	0.944	1.03	0.919

Sequence	binding signal [1]	binding signal [2]	binding signal [3]
TAGAGA	0.79	1.15	0.744
CACCTG	0.954	0.778	0.939
GCCACC	1.01	0.66	0.913
GATACC	0.996	0.763	0.896
CCCCAG	0.985	0.943	0.963
GCAGAA	0.944	0.794	0.844
CGGCAC	0.984	0.609	0.972
TGGAAC	1.02	0.993	0.989
TTTGCA	1.18	1.48	1.24
TCGCGA	0.825	0.992	0.877
CTCGGG	0.909	0.937	0.95
GCGCGT	0.832	0.636	0.795
TCGCGT	0.914	0.881	0.878
TTTAGA	0.939	1.59	0.883
GTTGTA	0.946	0.88	0.992
ACGAGC	0.955	0.843	0.911
CAACCG	1.28	0.702	0.98
GCGAAA	0.959	0.828	0.923
CTGGGC	0.964	0.849	0.995
ATAACC	1.22	1.27	1.16
